Results taken from PubChem BioAssay (EPA / NIEHS).
Only a part is listed here, and it is no random draw. Results filed as inconclusive are left out. The source made the active and inactive calls. The calls were made as follows: active = hit-call score of the fitted dose curve at least 0.9, where 1 is the maximum; inconclusive = response in the unintended direction; inactive = score below 0.9.

Sequences of proteins named here, by UniProt entry; tags and fusion partners are left off. A change or cut given only in a name is not applied to a line headed by its entry.
UniProt Q03181: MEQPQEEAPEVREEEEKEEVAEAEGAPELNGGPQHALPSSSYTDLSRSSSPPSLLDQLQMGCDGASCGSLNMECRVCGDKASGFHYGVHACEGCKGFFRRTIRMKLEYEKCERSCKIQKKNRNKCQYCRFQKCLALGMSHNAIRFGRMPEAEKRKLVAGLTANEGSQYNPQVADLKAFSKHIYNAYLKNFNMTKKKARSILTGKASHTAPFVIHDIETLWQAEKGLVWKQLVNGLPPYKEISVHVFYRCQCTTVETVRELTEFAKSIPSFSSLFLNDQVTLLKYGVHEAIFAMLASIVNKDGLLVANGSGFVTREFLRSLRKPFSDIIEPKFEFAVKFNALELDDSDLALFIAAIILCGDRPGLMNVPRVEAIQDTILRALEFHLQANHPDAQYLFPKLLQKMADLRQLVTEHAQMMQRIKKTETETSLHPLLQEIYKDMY

Molecular target: human Peroxisome Proliferator-activated Receptor delta (PPARd), PPARD (gene 5467) (UniProt Q03181)
Test: ATG_PPARd_TRANS: Attagene TRANS-FACTORIAL HepG2 Assay for human Peroxisome Proliferator-activated Receptor delta (PPARd) (AID 2283002)
In short: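 Read-out is induced reporter mRNA, quantified by RT-PCR with fluorescent labelling and capillary electrophoresis after 24 h dosing. Cells are HepG2 transiently carrying multiple GAL4-UAS reporter units driven by exogenous NR-GAL4 chimeras; DMSO serves as baseline.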

O=C(CCl)CCl
outcome: inactive
